Results taken from PubChem BioAssay AID540256 (National Center for Advancing Translational Sciences (NCATS), 2011).
Several values for one entry are separate records, joined by “and”; a condition that tells them apart may be missing. Equal entries are not always repeated. Hit rate of the full screen: of about 300,000 compounds, about 3,700 (1.2%) were called active. This list was built around the results that the source calls inconclusive (neither active nor inactive); the mix of calls is not that of the screen. The call rests on the fitted dose curve; tested in HEK293 cells. Potencies of inconclusive entries are doubtful fits and often do not repeat.

experiment: qHTS for Inhibitors of binding or entry into cells for Lassa Virus; settings: Lassa virus pseudotype entry inhibition, cell reporter; activity change, negative = inhibition: at 37.9 µM (top of the series) unless noted; further: nearly all actives have a fitted effect of over 50% in size
On the % scale 0 is the no-effect control and ±100 the full control effect; potency means the concentration at half of the fitted maximal effect.

Compound	Potency	activity change, negative = inhibition
COc1ccc(C(=O)Nc2ccc3oc(-c4cccnc4)nc3c2)cc1OC	inconclusive: 35.5 µM [inhibitor, single point]	
C=C1CC(C)OC(c2ccccc2OCC(O)CN2CCCCC2)C1 (stereo unspecified)	inactive	
CC(OC(=O)c1cccc(S(=O)(=O)Nc2ccccc2F)c1)C(=O)NCc1ccc2c(c1)OCO2 (stereo unspecified)	inactive	
COC(=O)CCN(C(=O)c1ccc(C)c([N+](=O)[O-])c1)c1ccccn1	inconclusive: 7.94 µM [activator, partial curve, poor fit]	
CC(C)(C)NC(=O)c1nc2ccccc2s1	inactive	
COc1ccc2nc(SCC(=O)Nc3ccccc3C)[nH]c2c1	inconclusive: 6.51 µM [activator, single point]	
Clc1cccc(Cl)c1CSc1nnc2ccccn12	inconclusive: 10 µM [activator, partial curve, poor fit]	
Cc1ccc(NC(=O)Cc2ccc3c(c2)OCCO3)cc1S(=O)(=O)N1CCCCC1	inconclusive: 35.5 µM [inhibitor, partial curve, poor fit]	
COc1ccc(CCNC(=O)c2cc(=O)c3ccc(C)cc3o2)cc1OC	inconclusive: 12.6 µM [inhibitor, partial curve, poor fit]	
N#C/C(=C\C=C\c1ccccc1[N+](=O)[O-])c1nc(-c2ccc3c(c2)OCO3)cs1	inactive	
O=[N+]([O-])c1ccc(C2=NN(c3ccccc3)C(c3ccco3)C2)cc1 (stereo unspecified)	inactive	
Nc1c(N=Nc2ccc(-c3ccc(N=Nc4cc(S(=O)(=O)O)c5ccccc5c4N)cc3)cc2)cc(S(=O)(=O)O)c2ccccc12	inconclusive: 3.53 µM [inhibitor, full curve, poor fit]	
CC(C)(C)C(=O)CSc1ncccn1	inconclusive: 35.5 µM [activator, single point]	
O=C(NCc1ccc(Cl)cc1)C1CCCCN1S(=O)(=O)c1ccccc1 (stereo unspecified)	inconclusive: 0.794 µM [inhibitor, partial curve, poor fit]	
COc1cc(OC)cc(C(=O)Oc2ccc(/C=N/Nc3nc4ccccc4s3)cc2OC)c1	inconclusive: 15.8 µM [inhibitor, single point]	
COc1ccccc1C(=O)NC(C(=O)NCCc1nc2ccccc2[nH]1)=C(C)C	inactive	
COc1ccc(Br)c(C(=O)OCC(=O)N2CCc3ccccc32)c1	inconclusive: 0.562 µM [inhibitor, partial curve, poor fit]	
Cc1cc(C)nc(SCc2ccc(F)cc2)n1	inactive	
COc1ccc(/C=C2\SC(=S)N(CCC(=O)Nc3ccc(C(=O)O)cc3)C2=O)cc1OC	inconclusive: 35.5 µM [activator, single point]	
Cc1cc(Br)cc2c1N(Cc1ccccc1OC(C)C)C(=O)C2=O	inconclusive: 35.5 µM [inhibitor, single point]	
Cc1cc(C)c(S(=O)(=O)NCC(c2ccco2)S(=O)(=O)c2cccs2)c(C)c1 (stereo unspecified)	inconclusive: 7.94 µM [inhibitor, partial curve]	
CCCc1cc(=O)n2[nH]cc(-c3ccc(Cl)cc3)c2n1	inconclusive: 10 µM [inhibitor, partial curve]	

Compound	Potency	activity change, negative = inhibition
CCOc1cc(/C=C2\C(=N)N3N=CSC3=NC2=O)ccc1OS(=O)(=O)c1ccccc1	inconclusive: 35.5 µM [inhibitor, single point]	
COc1ccc(C(=O)Nc2cccnc2Sc2ccc(Cl)cc2)cc1	inconclusive: 0.794 µM [inhibitor, single point]	
CC1CCc2onc(C(=O)N3CCN(c4cccc(Cl)c4)CC3)c2C1 (stereo unspecified)	inconclusive: 35.5 µM [inhibitor, single point]	
O=C(CCSc1nnc(-c2ccco2)o1)Nc1ccc(Cl)cc1	inactive	
O=C(/C=C/c1ccccc1Cl)NCCc1ccc(F)cc1	inactive	
CC(C)Oc1ccc(CNC(=O)c2ccc(NC(=O)N3CC(C)Sc4ccccc43)cc2)cc1 (stereo unspecified)	inconclusive: 2.51 µM [inhibitor, full curve, poor fit]	
O=C(COC(=O)CCC(=O)c1cccs1)Nc1ncc(Cl)cc1Cl	inactive	
COc1ccc(C=NNC(=S)NC23CC4CC(CC(C4)C2)C3)cc1OC	inconclusive: 11.2 µM [inhibitor, partial curve, poor fit]	
Cc1ccc(SCC(=O)Nc2ccc3oc(-c4ccccc4F)nc3c2)cc1	inconclusive: 2.82 µM [activator, full curve]	
COc1ccc(CCNC(=O)c2sc3cc(C)ccc3c2Cl)cc1	inconclusive: 20 µM [inhibitor, partial curve, poor fit]	
CCOC(=O)c1ccccc1NC(=O)c1cnc(N2CCOCC2)c2ccccc12	inconclusive: 1.41 µM [inhibitor, full curve]	
CCCc1ccc(S(=O)(=O)N2CCN(Cc3ccco3)CC2)cc1	inconclusive: 35.5 µM [inhibitor, partial curve, poor fit]	
O=C1/C(=C\c2cc(Br)cc(Br)c2O)SC(=S)N1Cc1ccccc1	inconclusive: 6.31 µM [inhibitor, full curve]	
CC(C(=O)NCCC1=CCCCC1)c1ccc([N+](=O)[O-])cc1 (stereo unspecified)	inactive	
CC(=O)c1cccc(NC(=O)COC(=O)CCc2ccc(S(=O)(=O)N3CCOCC3)cc2)c1		inconclusive: 35.4% [activator]
CCCCOc1ccc(CSCCN=C(N)N)cc1	inconclusive: 35.5 µM [inhibitor, single point]	
CCN(CC)C(=S)NC(=O)c1ccc(OC)c(Br)c1	inconclusive: 1.26 µM [inhibitor, single point]	
CCOc1ccc(CNC(=S)N/N=C\c2ccc([N+](=O)[O-])cc2)cc1	inconclusive: 3.98 µM [inhibitor, partial curve]	
Nc1nc(Sc2ccc([N+](=O)[O-])c3nonc23)c2[nH]cnc2n1	inconclusive: 5.01 µM [inhibitor, full curve]	
O=C(COc1ccccc1[N+](=O)[O-])Nc1cccnc1	inconclusive: 31.6 µM [activator, single point]	
O=C1OCC2=C1C(c1ccc(F)cc1)Sc1ccccc1N2 (stereo unspecified)	inconclusive: 29.1 µM [inhibitor, single point]	
COCC(C)NC(=O)CSc1nc(-c2ccccc2)c(-c2ccccc2)o1 (stereo unspecified)	inconclusive: 0.184 µM [inhibitor, full curve, poor fit]	

Compound	Potency	activity change, negative = inhibition
CNc1nc(C)c(C(=O)c2ccc(Cl)cc2)s1	inactive	
S=C(Nc1ccccc1)Nc1ccccc1Br	inconclusive: 2.51 µM [activator, full curve]	
COc1ccc(Cl)cc1NC(=O)NCCN1CCNC1=O	inconclusive: 1.26 µM [inhibitor, single point]	
COCc1ccc(O)c2ncccc12	inconclusive: 22.4 µM [inhibitor, single point]	
CC(c1ccccn1)N(C)C(=O)c1ccc2nc(Cc3ccccc3F)oc2c1 (stereo unspecified)	inconclusive: 0.891 µM [inhibitor, single point]	
CC(CC(=O)N1CCN(c2ccccc2)CC1)S(=O)(=O)c1ccc2c(c1)NC(=O)CO2 (stereo unspecified)	inconclusive: 25.1 µM [inhibitor, single point]	
COC(C(=O)N/N=C(\C)CC(=O)Nc1ccc(N(C)C)cc1)c1ccccc1 (stereo unspecified)	inconclusive: 25.1 µM [activator, single point]	
Cc1ccc(C2c3[nH]c4ccccc4c3CCN2C(=O)CSCc2ccc(F)cc2)cc1 (stereo unspecified)	inconclusive: 11.2 µM [inhibitor, partial curve, poor fit]	
NCCNC[C@@H]1COC2(CCCCCCCCCCC2)O1	inconclusive: 35.5 µM [inhibitor, single point]	
Cc1cc(/C=N/n2cnnc2)c(C)n1-c1ccc(OCc2ccccc2F)cc1	inconclusive: 16.4 µM [inhibitor, single point]	
CC1CCCN(CCCNC(=O)c2cc3c(Cl)nc4ccccc4c3s2)C1 (stereo unspecified)	inconclusive: 35.5 µM [inhibitor, single point] and inconclusive: 28.2 µM [inhibitor, single point]	
CCc1cccc(CC)c1NC(=S)NCCc1c(C)[nH]c2ccc(C)cc12	inconclusive: 29.1 µM [inhibitor, single point]	
COCCNC(=S)Nc1ccc([N+](=O)[O-])cc1C	inactive	
CN(Cc1ccco1)S(=O)(=O)c1nnc(NC(=O)c2ccccc2Cl)s1	inactive	
CCCc1cc(Nc2ccc(C)cc2)n2ncnc2n1	inconclusive: 1.26 µM [activator, single point]	
COc1ccccc1OCc1cc(C(=O)N2CCN(C)C(c3ccccc3)C2)no1 (stereo unspecified)	inconclusive: 2.24 µM [activator, partial curve, poor fit]	
O=C(CNC(=O)Cc1ccccc1)N=Nc1c(O)[nH]c2ccc(Br)cc12	inconclusive: 25.1 µM [inhibitor, single point]	
O=C(CSc1ccc([N+](=O)[O-])cn1)Nc1ccc2c(c1)OCCO2	inactive	
CCN(CC)c1nn2c(=O)c(C(=O)NCc3ccc(N(C)C)cc3)cnc2s1	inconclusive: 5.62 µM [inhibitor, full curve, poor fit]	
COC(=O)c1cn(NC(=O)c2cc([N+](=O)[O-])ccc2F)c(=O)c2ccccc12	inconclusive: 6.31 µM [inhibitor, single point]	
Clc1ccc(C=Cc2ccccn2)c(Cl)c1	inconclusive: 31.6 µM [inhibitor, single point]	
CC12CC(c3ccccc3O1)N(C(=O)c1ccco1)C(=S)N2c1ccc(F)cc1 (stereo unspecified)	inconclusive: 13 µM [inhibitor, partial curve]	

Four records picked at random from the list so far:
Compound	Potency	activity change, negative = inhibition
COc1ccc(Cl)cc1NC(=O)NCCN1CCNC1=O	inconclusive: 1.26 µM [inhibitor, single point]	
NCCNC[C@@H]1COC2(CCCCCCCCCCC2)O1	inconclusive: 35.5 µM [inhibitor, single point]	
COC(C(=O)N/N=C(\C)CC(=O)Nc1ccc(N(C)C)cc1)c1ccccc1 (stereo unspecified)	inconclusive: 25.1 µM [activator, single point]	
CNc1nc(C)c(C(=O)c2ccc(Cl)cc2)s1	inactive	
